Some results were stated once for a whole list of compounds, not compound by compound.
Experiment: Solubility of redox-active electrolyte species in aqueous electrolyte

## CCCC[n+]1ccc(-c2cc[n+](CCCC)cc2)cc1 [butyl viologen]
  solubility: > 1500 mM

— patent publication US10770699B2, “Stable bromine charge storage in porous carbon electrodes using tetraalkylammonium bromides for reversible solid complexation” (The Regents of the University of California, priority 2014, dated 2020)
